Structures can show the parent of a compound that is named as a salt. Some of the results follow. Most entries show no effect beyond the scatter of the controls.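 Reh is a human leukemia cell line; the read-out is the median γH2AX antibody signal in S-phase cells by flow cytometry, with the score counting standard deviations from the median difference of each paired set of plates. Scores above 2.5 were called candidate hits, while scores below -2 mark compounds that lowered the MK1775-induced damage.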
Each molecule was assayed on Reh (assay: Z' of S-phase gammaH2AX difference (drug + MK1775 minus drug alone) (Z-score); higher = stronger synergistic S-phase DNA damage with MK1775). Settings: MK1775 concentration 400 nM; first compound 10 µM; 4 h.

SMILES	Z' of S-phase gammaH2AX difference (Z-score)
CC(=O)[C@H]1CC[C@H]2[C@@H]3CC[C@H]4C[C@H](O)CC[C@]4(C)[C@H]3CC[C@]12C [5alpha-Pregnan-3alpha-ol-20-one] + C=CCn1c(=O)c2cnc(Nc3ccc(N4CCN(C)CC4)cc3)nc2n1-c1cccc(C(C)(C)O)n1 [MK1775]	inactive: 1.15
CCN1C[C@]2(C)CC[C@H](O)[C@]34C1[C@@H](C[C@H]23)[C@@]1(O)C[C@H](OC)[C@H]2C[C@@H]4[C@@H]1[C@H]2O [Karakoline] + C=CCn1c(=O)c2cnc(Nc3ccc(N4CCN(C)CC4)cc3)nc2n1-c1cccc(C(C)(C)O)n1 [MK1775]	inactive: 0.274
CCCN1CCC[C@@H](c2cccc(C#N)c2)C1 [S(-)-DS 121 hydrochloride] + C=CCn1c(=O)c2cnc(Nc3ccc(N4CCN(C)CC4)cc3)nc2n1-c1cccc(C(C)(C)O)n1 [MK1775]	inactive: -0.0704
CC(NC(C)(C)C)C(=O)c1cccc(Cl)c1 (stereo unspecified) [Bupropion hydrochloride] + C=CCn1c(=O)c2cnc(Nc3ccc(N4CCN(C)CC4)cc3)nc2n1-c1cccc(C(C)(C)O)n1 [MK1775]	inactive: 0.184
Oc1ccc2c3c1O[C@H]1c4[nH]c5ccccc5c4C[C@@]4(O)[C@@H](C2)N(CC2CC2)CC[C@]314 [Naltrindole hydrochloride] + C=CCn1c(=O)c2cnc(Nc3ccc(N4CCN(C)CC4)cc3)nc2n1-c1cccc(C(C)(C)O)n1 [MK1775]	inactive: -0.461
CN1[C@@H]2CC[C@H]1C[C@@H](OC(=O)c1cc(Cl)cc(Cl)c1)C2 [3-Tropanyl-3,5-dichlorobenzoate] + C=CCn1c(=O)c2cnc(Nc3ccc(N4CCN(C)CC4)cc3)nc2n1-c1cccc(C(C)(C)O)n1 [MK1775]	inactive: -0.405
CC(C)(C)c1cc(C=C(C#N)C#N)cc(C(C)(C)C)c1O [Tyrphostin A9] + C=CCn1c(=O)c2cnc(Nc3ccc(N4CCN(C)CC4)cc3)nc2n1-c1cccc(C(C)(C)O)n1 [MK1775]	inactive: -1.19
O=C(O)c1nn(Cc2ccc(Cl)cc2Cl)c2ccccc12 [Lonidamine] + C=CCn1c(=O)c2cnc(Nc3ccc(N4CCN(C)CC4)cc3)nc2n1-c1cccc(C(C)(C)O)n1 [MK1775]	inactive: -0.584
O=[N+]([O-])c1ccc(O[C@@H]2O[C@H](CO)[C@@H](O)[C@H](O)[C@H]2F)c([N+](=O)[O-])c1 [2,4-Dinitrophenyl 2-fluoro-2-deoxy-beta-D-glucopyranoside] + C=CCn1c(=O)c2cnc(Nc3ccc(N4CCN(C)CC4)cc3)nc2n1-c1cccc(C(C)(C)O)n1 [MK1775]	inactive: -0.221
CC[C@@H](CO)NC(=O)[C@@H]1C=C2c3cccc4[nH]cc(c34)C[C@H]2N(C)C1 [Methylergonovine maleate] + C=CCn1c(=O)c2cnc(Nc3ccc(N4CCN(C)CC4)cc3)nc2n1-c1cccc(C(C)(C)O)n1 [MK1775]	inactive: -0.427
CCC1(C2=NCCN2)Cc2ccccc2O1 (stereo unspecified) [Efaroxan hydrochloride] + C=CCn1c(=O)c2cnc(Nc3ccc(N4CCN(C)CC4)cc3)nc2n1-c1cccc(C(C)(C)O)n1 [MK1775]	inactive: -0.318
CCOC(=O)c1ncn2c1[C@@H]1CCCN1C(=O)c1cc(OC)ccc1-2 + C=CCn1c(=O)c2cnc(Nc3ccc(N4CCN(C)CC4)cc3)nc2n1-c1cccc(C(C)(C)O)n1 [MK1775]	inactive: 0
NC(N)=Nc1ccc2[nH]c3c(c2c1)C[C@@]1(O)[C@H]2Cc4ccc(O)c5c4[C@@]1(CCN2CC1CC1)[C@H]3O5 [Guanidinyl-naltrindole di-trifluoroacetate] + C=CCn1c(=O)c2cnc(Nc3ccc(N4CCN(C)CC4)cc3)nc2n1-c1cccc(C(C)(C)O)n1 [MK1775]	inactive: -0.284
C[N+]1(C)CCc2cc3c(cc2[C@H]1[C@@H]1OC(=O)c2c1ccc1c2OCO1)OCO3 [(-)-Bicuculline methbromide, 1(S), 9(R)] + C=CCn1c(=O)c2cnc(Nc3ccc(N4CCN(C)CC4)cc3)nc2n1-c1cccc(C(C)(C)O)n1 [MK1775]	inactive: 0.578
COc1ccc2c(c1O)-c1cccc3c1[C@@H](C2)N(C)CC3 [R(-)-Apocodeine hydrochloride] + C=CCn1c(=O)c2cnc(Nc3ccc(N4CCN(C)CC4)cc3)nc2n1-c1cccc(C(C)(C)O)n1 [MK1775]	inactive: 0.367
C[N+]1(C)[C@@H]2CC(OC(=O)[C@H](CO)c3ccccc3)C[C@H]1[C@@H]1O[C@@H]12 (single isomer, unassigned; (-)) [(-)-Scopolamine methyl nitrate] + C=CCn1c(=O)c2cnc(Nc3ccc(N4CCN(C)CC4)cc3)nc2n1-c1cccc(C(C)(C)O)n1 [MK1775]	inactive: 0.393
NC(CCP(=O)(O)O)C(=O)O (stereo unspecified) [(?)-2-Amino-4-phosphonobutyric acid] + C=CCn1c(=O)c2cnc(Nc3ccc(N4CCN(C)CC4)cc3)nc2n1-c1cccc(C(C)(C)O)n1 [MK1775]	inactive: -0.317
NC(Cc1cc(O)c(O)cc1O)C(=O)O (racemic) [6-Hydroxy-DL-DOPA] + C=CCn1c(=O)c2cnc(Nc3ccc(N4CCN(C)CC4)cc3)nc2n1-c1cccc(C(C)(C)O)n1 [MK1775]	inactive: -0.785
COc1cc(C(O)CN)ccc1O (stereo unspecified) [(?)-Normetanephrine hydrochloride] + C=CCn1c(=O)c2cnc(Nc3ccc(N4CCN(C)CC4)cc3)nc2n1-c1cccc(C(C)(C)O)n1 [MK1775]	inactive: 0.771
O=c1[nH]oc2c1CCNC2 [THIP hydrochloride] + C=CCn1c(=O)c2cnc(Nc3ccc(N4CCN(C)CC4)cc3)nc2n1-c1cccc(C(C)(C)O)n1 [MK1775]	inactive: -0.341
O=C(CCCN1CCC2(CC1)C(=O)NCN2c1ccccc1)c1ccc(F)cc1 [Spiperone hydrochloride] + C=CCn1c(=O)c2cnc(Nc3ccc(N4CCN(C)CC4)cc3)nc2n1-c1cccc(C(C)(C)O)n1 [MK1775]	inactive: -0.0168

Fetched one by one from the list above (two):
SMILES	Z' of S-phase gammaH2AX difference (Z-score)
CN1[C@@H]2CC[C@H]1C[C@@H](OC(=O)c1cc(Cl)cc(Cl)c1)C2 [3-Tropanyl-3,5-dichlorobenzoate] + C=CCn1c(=O)c2cnc(Nc3ccc(N4CCN(C)CC4)cc3)nc2n1-c1cccc(C(C)(C)O)n1 [MK1775]	inactive: -0.405
NC(Cc1cc(O)c(O)cc1O)C(=O)O (racemic) [6-Hydroxy-DL-DOPA] + C=CCn1c(=O)c2cnc(Nc3ccc(N4CCN(C)CC4)cc3)nc2n1-c1cccc(C(C)(C)O)n1 [MK1775]	inactive: -0.785
